The record followed here is US20160264636A1, “PEPTIDE INHIBITORS OF TEAD/YAP-TAZ INTERACTION” (UNIVERSITE PIERRE ET MARIE CURIE (PARIS 6), priority 2013, published 2016).

Chains of the proteins cited; added tags and fusions are not shown.
UniProt Q9GZV5: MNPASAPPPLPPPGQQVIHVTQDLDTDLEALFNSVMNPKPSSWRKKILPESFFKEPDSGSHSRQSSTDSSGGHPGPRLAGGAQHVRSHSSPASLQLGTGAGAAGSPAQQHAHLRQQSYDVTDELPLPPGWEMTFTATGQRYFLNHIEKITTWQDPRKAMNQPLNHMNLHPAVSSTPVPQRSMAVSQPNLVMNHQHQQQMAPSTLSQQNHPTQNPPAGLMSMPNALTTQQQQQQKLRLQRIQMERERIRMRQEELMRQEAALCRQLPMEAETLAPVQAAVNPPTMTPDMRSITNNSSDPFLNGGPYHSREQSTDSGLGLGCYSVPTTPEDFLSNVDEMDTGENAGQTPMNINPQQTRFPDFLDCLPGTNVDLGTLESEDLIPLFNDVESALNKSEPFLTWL
UniProt Q15562: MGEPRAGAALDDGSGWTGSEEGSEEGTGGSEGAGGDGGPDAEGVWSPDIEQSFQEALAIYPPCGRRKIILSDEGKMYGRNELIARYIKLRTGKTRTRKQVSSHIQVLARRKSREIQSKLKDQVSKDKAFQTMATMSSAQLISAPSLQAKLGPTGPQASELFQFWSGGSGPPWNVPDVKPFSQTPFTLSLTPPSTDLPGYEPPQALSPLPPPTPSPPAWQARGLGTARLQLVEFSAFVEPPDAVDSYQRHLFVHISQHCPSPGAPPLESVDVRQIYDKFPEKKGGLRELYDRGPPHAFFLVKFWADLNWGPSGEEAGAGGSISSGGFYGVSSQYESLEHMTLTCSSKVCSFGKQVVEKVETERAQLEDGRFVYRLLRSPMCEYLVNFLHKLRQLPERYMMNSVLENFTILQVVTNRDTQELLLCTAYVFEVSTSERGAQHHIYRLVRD
UniProt P46937: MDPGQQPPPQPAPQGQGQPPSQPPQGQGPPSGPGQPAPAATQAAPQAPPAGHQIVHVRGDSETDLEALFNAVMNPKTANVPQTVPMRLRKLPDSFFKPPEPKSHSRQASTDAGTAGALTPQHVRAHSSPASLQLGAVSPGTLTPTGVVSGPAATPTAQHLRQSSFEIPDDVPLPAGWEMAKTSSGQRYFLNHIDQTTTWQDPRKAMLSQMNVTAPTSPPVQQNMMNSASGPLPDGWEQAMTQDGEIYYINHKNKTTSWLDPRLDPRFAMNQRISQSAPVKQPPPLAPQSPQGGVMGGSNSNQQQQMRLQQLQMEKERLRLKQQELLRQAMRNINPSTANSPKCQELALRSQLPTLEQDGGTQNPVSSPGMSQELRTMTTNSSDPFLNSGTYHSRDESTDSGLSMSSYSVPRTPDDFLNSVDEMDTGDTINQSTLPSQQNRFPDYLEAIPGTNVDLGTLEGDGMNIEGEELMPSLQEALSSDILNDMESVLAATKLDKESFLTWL

In assay [1] the target is peptide TAZ (…) (human). Put plainly: cellulose-bound dodecapeptide spot array probed with TAZ-GST, ECL detection.
Assay [2] concerns the target T1, peptide YAP (…) (human).
T1 sequence (peptide): KTANVPQTVPMRLRKLPD
Put plainly: cellulose-bound dodecapeptide spot array probed with TEAD-GST, ECL detection.

The target in assay [3] is T2, peptide TEAD (…) (human).
T2 sequence (peptide): RLQLVEFSAFVEPPDAVD
Put plainly: cellulose-bound dodecapeptide spot array probed with YAP-GST, ECL detection.

No constants are given. Whether binding was seen depends on the method and setting. Some results given as binding are weak or reduced against the parent protein; the word gives no strength.

Regarding “TAZ-GST protein (from UniProt Q9GZV5 1-400)”, the binding entry in assay [1] is “binds”.

In the case of “TEAD-GST protein (from UniProt Q15562 1-447)”, the binding entry in assay [2] is reported as “binds”.

Consider “YAP-GST protein (from UniProt P46937 1-504)”, for which, in assay [3], the binding result is reported as “binds”.
